Construct, isoform or probe ends are uncertain for at least one entry. Negatives hold for the conditions tested. At least one verdict was read from the data and is not stated in words by the source. For part of these data: A weaker result is weaker than the reference pair of the same experiment.
Assays:
Test in all cases: EMSA
Settings in all cases: 1.6 mM EDTA, 10.3 mM HEPES (pH not stated), 1 mM DTT, 1.3 mM spermidine HCl, 33.3 ng/uL poly dI/dC, 2.5% CHAPS, 4.3% glycerol, 0.1 ng probe in 12 uL, protein translated in vitro, label: 32P (dATP Klenow fill-in)
[1] = test system: SHP2 + SEP3ΔC
[2] = test system: SHP1 + SEP3ΔC
[3] = test system: AG + SEP3ΔC
[4] = heterodimer band abolished, 6 ug/uL BSA
[5] = near identical to AtMUTE_i1, 6 ug/uL BSA
[6] = all shifted bands eliminated, 6 ug/uL BSA
[7] = similar to AtMUTE_i1, 6 ug/uL …

CTCGAGGATCATGCATGATAATCTTTCTAATATTGGATTTCCCAACTTACTATTTTTGGAAGAAAACAAAATGTTGTGGTCTAGA (double strand) [AtMUTE_i1]
binding result ([1]; very weak band, 6 ug/uL BSA): binds more weakly | binding result ([2]; 6 ug/uL BSA): binds | binding result ([3]; 6 ug/uL BSA): binds

CTCGAGGATCATGCATGATAATCTTTCTAATATTGGATTTCCCAACTTATTTATGCTGTAAGAAAACAAAATGTTGTGGTCTAGA (double strand) [mCArG_2]
binding result [1, 4]: no binding | binding result [2, 4]: no binding | binding result [3, 4]: no binding

CTCGAGGATCATGCATGGTTACCCTTTAATACTGGATATCCCCGACTTACTAATTTCGGAAAAATATGTTATGATCATGTCTAGA (double strand) [CrMUTE_i1]
binding result [1, 5]: binds more weakly | binding result [2, 5]: binds | binding result [3, 5]: binds

CTCGAGGATCATGCATGATAATCTTTGACAGTTTTAATTTCCCAACTTATTTATGCTGTAAGAAAACAAAATGTTGTGGTCTAGA (double strand) [mCArG_1+2]
binding result [1, 6]: no binding | binding result [2, 6]: no binding | binding result [3, 6]: no binding

CTCGAGGATCATGCATGGTAATCTTTCTAATATCGGATAGTACTCCAAACTTACTAATCTTGGAAAAATATGTTGTGCCATCTTCTAGA (double strand) [EsMUTE_i1]
binding result [1, 5]: binds more weakly | binding result [2, 5]: binds | binding result [3, 5]: binds

CTCGAGGATCATGCATGATAATCTTTGACAGTTTTAATTTCCCAACTTACTATTTTTGGAAGAAAACAAAATGTTGTGGTCTAGA (double strand) [mCArG_1]
binding result [1, 7]: binds more weakly | binding result [2, 7]: binds | binding result [3, 7]: binds

Reference: publication PMC10593234
